The whole screen tested about 330,000 compounds, of which about 610 (0.18%) were called active. This list was built around the results that the source calls inconclusive (neither active nor inactive); the mix of calls is not that of the screen. Calls follow the shape of the full dose curve. Where the call is inconclusive, the potency comes from a doubtful curve fit.
Assay: qHTS of Yeast-based Assay for SARS-CoV PLP; also: nearly all actives have a fitted effect of over 55% in size
Settings: S. cerevisiae expressing SARS-CoV PLpro; Potency: growth rescue; series mostly up to 32.9 µM
Potency is read from the fitted curve at half-maximal effect.

Question: With `CC1CC(C)CN(S(=O)(=O)c2ccc(Oc3ccc([N+](=O)[O-])cc3)cc2)C1` (configuration not stated) as the compound, how does the Potency read?
Answer: inconclusive: 22.4 µM [activator, single point]

Question: With `N=C1/C(=C/c2cccn2-c2ccc([N+](=O)[O-])cc2)C(=O)N=C2SC=CN12` as the compound, how does the Potency read?
Answer: inconclusive: 1.12 µM [activator, partial curve]

Question: With `COc1ccc(CN2CCCC(C(=O)c3cccc(OC(C)C)c3)C2)cc1Cn1cccn1` (configuration not stated) as the compound, how does the Potency read?
Answer: inactive

Question: With `CCNC(=O)c1cccc(NC(=O)CC2SC(N3CCCCC3)=NC2=O)c1` (configuration not stated) as the compound, how does the Potency read?
Answer: inactive

Question: With `NS(=O)(=O)c1ccc(NC(=O)COC(=O)CCc2ccc(S(=O)(=O)N3CCOCC3)cc2)cc1` as the compound, how does the Potency read?
Answer: inactive

Question: For `CCSc1ccccc1C(=O)N1CCN(c2ccccc2F)CC1`, which Potency is on record?
Answer: inconclusive: 3.98 µM [activator, single point]

Question: With `COc1cc(C)c(CN2CCC(n3nccc3NC(=O)C3CCOC3)CC2)cc1C` (configuration not stated) as the compound, how does the Potency read?
Answer: inconclusive: 3.16 µM [activator, single point]

Question: For `COc1ccc(NC(=O)c2cc3ccccc3cc2OC)cc1`, which Potency is on record?
Answer: inconclusive: 0.398 µM [activator, full curve, poor fit]

Question: For `O=C(O)/C=C1\NC(=O)c2ccccc21`, which Potency is on record?
Answer: inconclusive: 3.98 µM [activator, single point]

Question: With `Clc1ccc2nc(-c3ccccn3)c(Nc3ccc4c(c3)OCO4)n2c1` as the compound, how does the Potency read?
Answer: inconclusive: 14.1 µM [activator, partial curve]

Question: With `Cc1ccc(-n2nnnc2Sc2ccc(S(=O)(=O)NCCN(C)C)cc2[N+](=O)[O-])cc1` as the compound, how does the Potency read?
Answer: inconclusive: 12.6 µM [activator, single point]

Question: For `Oc1ccc(/C=N/Nc2ccc(Cl)nn2)c(O)c1O`, which Potency is on record?
Answer: inconclusive: 20 µM [activator, single point]

Question: For `O=C(O)CC(c1ccccc1)N1C(=O)c2cccc([N+](=O)[O-])c2C1=O` (configuration not stated), which Potency is on record?
Answer: inconclusive: 3.16 µM [activator, single point]

Question: Which Potency does the source give for `c1ccc(CNc2cncnc2)cc1` here?
Answer: inactive

Question: With `CN(C)C(Cc1ccccc1)C(=O)c1ccc(-c2ccccc2)cc1` (configuration not stated) as the compound, how does the Potency read?
Answer: active: 3.16 µM

Question: For `COc1cc2oc(=O)cc(-c3ccc(-c4ccc(O)cc4)cc3)c2c(OC)c1OC`, which Potency is on record?
Answer: inconclusive: 20 µM [activator, single point]

Question: With `Cc1cc(C)cc(OCC(=O)NNC(=O)c2cc3ccccc3oc2=O)c1` as the compound, how does the Potency read?
Answer: inconclusive: 10 µM [activator, single point]

Question: Which Potency does the source give for `Cc1ccc(OCCOc2ccc(Cl)cc2Cl)c([N+](=O)[O-])n1` here?
Answer: inactive

Question: With `CCn1c(SCC(=O)Nc2sc3c(c2C#N)CCC(C(C)(C)C)C3)nnc1-c1ccco1` (configuration not stated) as the compound, how does the Potency read?
Answer: inconclusive: 2.82 µM [activator, partial curve]

Question: Which Potency does the source give for `CN(c1ccccc1)c1nc2ccsc2c(=O)s1` here?
Answer: inactive

Question: For `N#CC1=C(N)Oc2c(ccc3cccnc23)C1c1cccnc1` (configuration not stated), which Potency is on record?
Answer: inconclusive: 11.2 µM [activator, single point]

Question: Which Potency does the source give for `COc1ccc(OC)c(/C=N/Nc2cc(C)nc(N3CCOCC3)n2)c1` here?
Answer: inactive

Question: For `Cc1ccc(NC(=O)[C@H](NC(=O)[C@@H]2Cc3ccccc3CN2)c2ccccc2)cc1C`, which Potency is on record?
Answer: inactive

Question: Which Potency does the source give for `O=C(CCN1CCN(C(c2ccccc2)c2ccccc2)CC1)N/N=C/c1ccc(O)cc1O` here?
Answer: active: 4.47 µM

Question: With `Cc1cccc(N2CCN(C(=O)CCN3C(=S)NC(C)(C)CC3C)CC2)c1C` (configuration not stated) as the compound, how does the Potency read?
Answer: inconclusive: 12.6 µM [activator, single point]

Question: Which Potency does the source give for `COc1ccccc1Nc1nc(-c2cccc(N3C(=O)c4ccccc4C3=O)c2)cs1` here?
Answer: inconclusive: 5.01 µM [activator, partial curve]

Question: Which Potency does the source give for `O=C(Nc1cccnc1)c1cc(Cl)ccc1Cl` here?
Answer: inconclusive: 3.98 µM [activator, single point]

Question: Which Potency does the source give for `CC1=C(C(=O)N2CCCCC2)C(c2cccs2)C2=C(CCCC2=O)N1` (configuration not stated) here?
Answer: inconclusive: 2.82 µM [activator, partial curve]

Question: For `N#Cc1nc(-c2ccc(OCc3ccc(Cl)cc3)cc2)oc1N1CCOCC1`, which Potency is on record?
Answer: inconclusive: 4.47 µM [activator, single point]

Question: With `C=CCN1C(=NC(=O)CCC(=O)O)SC2CS(=O)(=O)CC21` (configuration not stated) as the compound, how does the Potency read?
Answer: inconclusive: 20 µM [activator, single point]

Question: Which Potency does the source give for `COc1ccc(N(CC(=O)NC2CCCC2)C(=O)Cn2nnc(-c3ccc(F)cc3)n2)cc1OC` here?
Answer: inconclusive: 17.8 µM [activator, single point]

Question: With `Cc1ccc(CN(C)C(=O)C2CCC(=O)N(CCc3ccccc3)C2)o1` (configuration not stated) as the compound, how does the Potency read?
Answer: inconclusive: 22.4 µM [activator, partial curve, poor fit]

Question: For `Cc1ccc(S(=O)(=O)N2CCCC(C(=O)Nc3ccc(C(=O)O)cc3)C2)cc1Cl` (configuration not stated), which Potency is on record?
Answer: inactive

Question: Which Potency does the source give for `Cn1c(=O)c2c(nc(NNC(=O)C(F)(F)F)n2C)n(C)c1=O` here?
Answer: inactive

Question: With `CCCc1nn2c(=O)cc(COc3cccc(NC(=O)c4ccco4)c3)nc2s1` as the compound, how does the Potency read?
Answer: inconclusive: 22.4 µM [activator, single point]

Question: With `CCc1ccc(OCC(=O)NNC(=O)c2cnccn2)c(Br)c1` as the compound, how does the Potency read?
Answer: inconclusive: 17.8 µM [activator, single point]

Question: For `CCC/C(=N\NC(=O)c1ccc(CSc2nncn2C)cc1)c1ccccc1`, which Potency is on record?
Answer: inconclusive: 20 µM [activator, single point]

Question: Which Potency does the source give for `O=C(CCN1C(=O)c2ccccc2C1=O)Nc1sc2c(c1C(=O)NCC1CCCO1)CCC2` (configuration not stated) here?
Answer: inactive

Question: Which Potency does the source give for `COc1cccc(-c2nnc(SCc3cccnc3)o2)c1` here?
Answer: inactive

Question: For `CC12CCC(=O)N1C(C(=O)OCC(=O)Nc1cccc(S(=O)(=O)N3CCCCCC3)c1)CS2` (configuration not stated), which Potency is on record?
Answer: inconclusive: 11.2 µM [activator, single point]

Question: For `N#CCCn1cc(/C=C(\C#N)c2nc3ccccc3s2)c(-c2ccc(F)cc2)n1`, which Potency is on record?
Answer: inconclusive: 20 µM [activator, single point]

Question: Which Potency does the source give for `COc1ccc(OCC2CNC(=O)O2)cc1` (configuration not stated) here?
Answer: inconclusive: 20 µM [activator, single point]

Question: Which Potency does the source give for `CCOC(=O)C(=CNc1nc(-c2ccccc2)c(C(=O)Nc2ccc(-c3ccccc3)cc2)s1)C(=O)OCC` here?
Answer: inconclusive: 17.8 µM [activator, single point]

Question: With `CCOc1ncccc1C(=O)OCC(=O)Nc1ccc2c(c1)CCC2` as the compound, how does the Potency read?
Answer: inconclusive: 3.98 µM [activator, single point]

Question: Which Potency does the source give for `Oc1nc(Nc2ccc(Cl)cc2Cl)sc1/C=C1\C=Nc2ccccc21` here?
Answer: inconclusive: 0.282 µM [activator, partial curve, poor fit]

Question: For `O=c1ccc(S(=O)(=O)N2CCC(Cc3ccccc3)CC2)c[nH]1`, which Potency is on record?
Answer: inconclusive: 4.47 µM [activator, single point]

Question: For `CC1CCCCC1NC(=S)Nc1cccc(S(=O)(=O)N(C)C)c1` (configuration not stated), which Potency is on record?
Answer: inactive

Question: For `COCCCn1nnnc1SCC(=O)N1CCCC1`, which Potency is on record?
Answer: inconclusive: 3.16 µM [activator, single point]

Question: With `O=C(Nc1cccnc1Cl)C1c2ccccc2Oc2ccccc21` as the compound, how does the Potency read?
Answer: inconclusive: 3.55 µM [activator, single point]

Question: For `Cc1cccc(C2=NN(c3ccc(Br)cc3)[C@@H](C(=O)N3CCOC3=O)[C@@H]2c2ccccc2)c1`, which Potency is on record?
Answer: active: 3.55 µM

Question: For `N#CC1C(=O)NC(N2CCN(c3ccccc3)CC2)=NC12CCCCC2` (configuration not stated), which Potency is on record?
Answer: active: 15.8 µM

Question: For `CCCCc1ccc(NC(=S)NN2CCOCC2)cc1`, which Potency is on record?
Answer: active: 10 µM

Question: Which Potency does the source give for `C[C@]12CCC(O)CC1=CCC1C2CC[C@]2(C)/C(=N\NC(N)=S)CCC12` (some centres not stated) here?
Answer: inactive

Question: Which Potency does the source give for `Cc1ccccc1C1CC(c2ccccc2)Nc2ncnn21` (configuration not stated) here?
Answer: inconclusive: 11.2 µM [activator, partial curve]

Question: With `Cc1ccc(CNC(=O)CCNS(=O)(=O)c2cccs2)cc1` as the compound, how does the Potency read?
Answer: inconclusive: 20 µM [activator, single point]

Question: Which Potency does the source give for `COc1ccccc1C1/C(=C(/O)c2ccc(C)cc2)C(=O)C(=O)N1CCN1CCOCC1` (configuration not stated) here?
Answer: inconclusive: 15.8 µM [activator, single point]

Question: For `CCCNC(=O)[C@@H]1CCCN1C(=O)C1CCN(S(=O)(=O)c2ccc(C)cc2)CC1`, which Potency is on record?
Answer: inconclusive: 3.98 µM [activator, single point]

Question: With `CCOC(=O)c1[nH]c(CSc2nnc(-c3ccc(OC)cc3)o2)c(C(=O)OCC)c1C` as the compound, how does the Potency read?
Answer: active: 3.16 µM

Question: Which Potency does the source give for `COc1ccc(NS(=O)(=O)c2ccc(N3CCOCC3)c(NC(=O)c3cccc(F)c3)c2)cc1` here?
Answer: inconclusive: 2.24 µM [activator, single point]

Question: For `COC(=O)c1sc(NC(=S)NC(=O)c2ccccc2)nc1C`, which Potency is on record?
Answer: inconclusive: 3.98 µM [activator, full curve]

Question: With `CC(=O)OC(C)(C)/C=C/C(=O)[C@](C)(O)[C@H]1[C@H](O)C[C@@]2(C)[C@@H]3CC=C4[C@H](C[C@H](O)C(=O)C4(C)C)[C@]3(C)C(=O)C[C@]12C` as the compound, how does the Potency read?
Answer: inconclusive: 1.58 µM [activator, partial curve]

Question: With `CCn1c(=O)c(C(=O)NC(C)c2ccccc2)c(O)c2ccccc21` (configuration not stated) as the compound, how does the Potency read?
Answer: inconclusive: 4.47 µM [activator, single point]

Question: With `O=c1cc(-c2cccc3ccccc23)[nH][nH]1` as the compound, how does the Potency read?
Answer: inconclusive: 20 µM [activator, partial curve, poor fit]

Question: Which Potency does the source give for `Cc1ccc(S(=O)(=O)N(C)CC(=O)N2CC(C)OC(C)C2)cc1` (configuration not stated) here?
Answer: inconclusive: 14.1 µM [activator, single point]

Question: With `CC(C)P(=O)(c1cccc(C(=O)O)c1)C(C)C` as the compound, how does the Potency read?
Answer: inconclusive: 7.94 µM [activator, partial curve]

Question: With `Cc1scc(-c2n[nH]c(=S)n2Cc2ccccc2)c1C` as the compound, how does the Potency read?
Answer: inconclusive: 22.4 µM [activator, single point]

Question: With `CCc1ccc(CSc2nccn2-c2ccccc2)cc1` as the compound, how does the Potency read?
Answer: inconclusive: 3.98 µM [activator, single point]

From PubChem BioAssay AID485353 (National Center for Advancing Translational Sciences (NCATS), 2010)
